# According to publication PMC7819943, “Rice protein-binding microarrays: a tool to detect cis-acting elements near promoter regions in rice”:
# By UniProt entry, the sequences of proteins in these tests, tags left out.
# UniProt Q0JBA9, entry or part of it: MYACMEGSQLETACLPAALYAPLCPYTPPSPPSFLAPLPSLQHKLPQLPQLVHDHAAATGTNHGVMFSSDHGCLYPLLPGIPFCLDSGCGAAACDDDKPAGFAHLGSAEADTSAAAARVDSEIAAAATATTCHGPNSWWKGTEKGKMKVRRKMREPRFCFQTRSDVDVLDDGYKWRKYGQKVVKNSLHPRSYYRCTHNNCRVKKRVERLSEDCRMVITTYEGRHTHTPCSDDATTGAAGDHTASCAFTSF
# This is one part of the list.
# Target: OsWRKY34 (Oryza sativa, UniProt Q0JBA9 1-250)
# Assay: protein-binding microarray (RPBM); PBS, 2% BSA, 51.3 ng/ul salmon testes DNA, 50 uM zinc acetate, 200 nM TF, 25 C, 1 h; high values mean tight binding
# Settings: protein: recombinant; tags: N-terminal polyhistidine and DsRed monomer fusion (pET32a); label: CyDye5-dUTP incorporated in the synthesized complementary strand; 3' TTTTT single-stranded linker to array surface; dsDNA, one strand shown
# Procedure, shortened: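 An Axon 4000B scanner gave the binding signal as per-feature fluorescence intensity in arbitrary units. This followed washing of a custom Agilent array that had been incubated for 1 h at 25 °C with 200 nM protein in PBS, 2% BSA, salmon testes DNA and 50 µM zinc acetate. The proteins were transcription factors fused at the N-terminus to polyhistidine and DsRed, expressed in E. coli BL21-CodonPlus and purified on Ni–NTA.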
row,Sequence,binding signal
1,GCTGTTTGATCCATAATTTATCCGCGCGTCGTCACTCCGACGGAGTCACCTAGTGCAG,10200 fluorescence intensity (a.u.)
2,TCCAGTGTTAACATCGTTTCTCCTTGGCACGCTAAGCTTTCGGAGTCACCTAGTGCAG,10100 fluorescence intensity (a.u.)
3,TTTGTTGCTTTTTGGTTGACTAAAACTTTCCATGGAATGCCGGAGTCACCTAGTGCAG,8040 fluorescence intensity (a.u.)
4,CATAGTTTATATATCCGGTTTATCAAGTGACCTAGCGTTCCGGAGTCACCTAGTGCAG,8200 fluorescence intensity (a.u.)
5,CGTGACAACTCCACCTCCACTTCTCTCCTCTCTCGTCTTTCGGAGTCACCTAGTGCAG,9820 fluorescence intensity (a.u.)
6,TCGCATGTCCCTCGCTCTCCTGTACATCATGCGCATTCTTCGGAGTCACCTAGTGCAG,13500 fluorescence intensity (a.u.)
7,ATTATCAAATTTCTCGTGCATATGTCACTCGTATTTGTTGCGGAGTCACCTAGTGCAG,9590 fluorescence intensity (a.u.)
8,AACTCTCTAGCTAATTAATCTACTTCACTAACTTTGACTACGGAGTCACCTAGTGCAG,8130 fluorescence intensity (a.u.)
9,GTCACGAGTTTGATGCTCCTTTCTTGTCGTCGTGCTAGCACGGAGTCACCTAGTGCAG,9410 fluorescence intensity (a.u.)
10,TTGCCCACATTATAATATGCAGCAGCCACATTGCTGCATCCGGAGTCACCTAGTGCAG,8670 fluorescence intensity (a.u.)
11,CCCCACCAGGCCACCCGGCTTCTTCGTGTTGCTCACTGCACGGAGTCACCTAGTGCAG,9680 fluorescence intensity (a.u.)
12,CTTATTGCGCATTCTCTGTTGAGGCGGACATTGCCATTGCCGGAGTCACCTAGTGCAG,12400 fluorescence intensity (a.u.)
13,TTGCTAAAAAGTCAACGGTGTCAAATATTTCGAAACGGAGCGGAGTCACCTAGTGCAG,12300 fluorescence intensity (a.u.)
14,ACCATTATTTAACATGTCCAATTTTAATCGTCCGTCTTATCGGAGTCACCTAGTGCAG,9290 fluorescence intensity (a.u.)
15,GGTGCTCCGGATGCGCAGGTACAAGCTTTTTTTTTAGTTTCGGAGTCACCTAGTGCAG,8040 fluorescence intensity (a.u.)
16,ACAGTAGAGTGGGGTGTGCATATAATATTCATCAATTAGGCGGAGTCACCTAGTGCAG,10100 fluorescence intensity (a.u.)
17,TCCTGCCACACACTCGTCAATCGCGAAATCATGTGGCTAACGGAGTCACCTAGTGCAG,10000 fluorescence intensity (a.u.)
18,AGGTAATTCAACTTCATCCCTAGAAGCCATGGTACTTTTTCGGAGTCACCTAGTGCAG,10800 fluorescence intensity (a.u.)
19,CCACGCCCAGCGAAAACCCGTACCCGTCTCGTCTTATTTTCGGAGTCACCTAGTGCAG,12400 fluorescence intensity (a.u.)
20,TTTTTTCATATTTTATGTTTTATGTATACGTTCAAACATTCGGAGTCACCTAGTGCAG,8690 fluorescence intensity (a.u.)
21,GTGACCTCCACTTCTTGGAGACCTCTTGCTGCTGCTCATTCGGAGTCACCTAGTGCAG,8190 fluorescence intensity (a.u.)
22,AACACGCGCACACCACCATGGCGAATCCACCACCGCTAGTCGGAGTCACCTAGTGCAG,8400 fluorescence intensity (a.u.)
23,AAAATTTTTCTATTCAATTCTTTTCGTTTTTGGACCTCTCCGGAGTCACCTAGTGCAG,8660 fluorescence intensity (a.u.)

# Reprinted at random: 2 records from the list
row,Sequence,binding signal
12,CTTATTGCGCATTCTCTGTTGAGGCGGACATTGCCATTGCCGGAGTCACCTAGTGCAG,12400 fluorescence intensity (a.u.)
21,GTGACCTCCACTTCTTGGAGACCTCTTGCTGCTGCTCATTCGGAGTCACCTAGTGCAG,8190 fluorescence intensity (a.u.)
